From PubChem BioAssay AID1347075 (National Center for Advancing Translational Sciences (NCATS), 2019)
Among all 400,000 compounds or so, about 5,500 (1.4%) were called active. The shares of active, inactive and inconclusive entries below differ from those in the screen. The call rests on the fitted dose curve; in most records, active means well fitted cell-killing curve with a large enough effect; inconclusive means small, poorly fitted or top-dose-only effect, or effect the other way; inactive means flat fitted curve, though single readings scatter. A potency beside an inconclusive call is a rough fit, not a confirmed value.
On the % scale 0 is the no-effect control and ±100 the full control effect; potency means the concentration at half of the fitted maximal effect.

Assay: qHTS assay for MDR1-selective chemotherapeutics: Primary screen using the parental adenocarcinoma cell KB-3-1; further: nearly all actives have a fitted effect of over 60% in size
Details: KB-3-1 viability, CellTiter-Glo ATP luminescence, 72 h; activity change, negative = cytotoxic: at 46.1 µM (top of the series)
Procedure, shortened: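 Here the drug-naive KB-3-1 line serves as comparator for MDR sub-line selectivity; cells received compound titrations, 72 h at 37 °C, then CellTiter-Glo readout.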
With C=CC[C@@H](CC(=O)N[C@H](CO)Cc1ccccc1)C(=O)N[C@H](COC(=O)[C@@H](CC=C)Cc1ccc(F)cc1)C(C)(C)C the Potency was active: 20.6 µM.
For O=C(Nc1ccc2c(c1)OCCO2)c1ccccn1, the Potency was active: 18.4 µM.
For Cc1sc2ncnc(SCC(=O)NC(=O)c3cccn3C)c2c1C, the Potency was “inactive”.
With CCOc1ccc(CSC(=N)N)cc1[N+](=O)[O-] the Potency was inconclusive: 29.1 µM [cytotoxic, single point].
For Cc1csc(C)[n+]1CCC1CCCCC1, the Potency was inconclusive: 16.4 µM [cytotoxic, single point].
In the case of COc1ccc(NC(=O)c2cc(-c3ccncc3)nc3ccccc23)c(OC)c1, the Potency was inconclusive: 16.4 µM [cytotoxic, partial curve].
In the case of COc1ccc(Cn2c(=O)oc3ccccc32)cc1OC, the Potency was inconclusive: 5.17 µM [rising, partial curve].
With CCOc1ccccc1NC(=O)CSc1nnc2c(CC)c(C)nc(N)n12 the Potency was “inactive”.
In the case of Cc1cc(C(=O)Cn2cc(C(F)(F)F)ccc2=O)c(C)n1-c1ccccc1, the Potency was inconclusive: 29.1 µM [cytotoxic, partial curve, poor fit].
For Cc1cc(C)nc(NC(=NCCc2c[nH]c3ccccc23)NC(=O)C(C)(C)C)n1, the Potency was inconclusive: 25.9 µM [cytotoxic, single point].
With COc1ccc(-c2[nH]nc3nc(N4CCN(C(=O)c5ccoc5)CC4)cc(C(F)(F)F)c23)cc1 the Potency was inconclusive: 18.4 µM [cytotoxic, single point].
With CC(=O)[C@@H]1[C@@H](C(=O)c2ccc(C)cc2)[C@]2(C(=O)Nc3ccccc32)[C@H]2C=Cc3cc(F)ccc3N12 the Potency was inconclusive: 29.1 µM [cytotoxic, single point].
For COc1ccc(Cl)cc1NC(=O)CN1C(=O)NC(Cc2c[nH]c3ccccc23)C1=O (stereo not given), the Potency was inconclusive: 25.9 µM [rising, single point].
With O=C(NCCn1cc(SCc2ccc(C(F)(F)F)cc2)c2ccccc21)c1cccs1 the Potency was inconclusive: 16.4 µM [cytotoxic, single point].
With COc1cc(NC(=S)NCCc2ccccc2)c(OC)cc1NC(=O)CC(C)C the Potency was “inactive”.
With CSc1c(CC(=O)Nc2ccccc2)n(C)c2ccccc12 the Potency was inconclusive: 18.4 µM [cytotoxic, single point].
For COc1cc(NC(=O)c2cc([N+](=O)[O-])ccc2NC(=O)CNC2CCCCC2C)cc(OC)c1 (stereo not given), the Potency was “inactive”.
With Cc1cc(C)nc(NC(=NCCc2c[nH]c3ccccc23)NC(=O)Nc2ccc(Cl)c(Cl)c2)n1 the Potency was inconclusive: 18.4 µM [cytotoxic, single point].
With O=c1[nH]c(SCc2nc3c(cnn3-c3ccccc3)c(=O)[nH]2)nc2ccccc12 the Potency was active: 2.06 µM.
In the case of CNC(=O)C1CCC(Cn2c(=O)c3sccc3n(CC(=O)Nc3ccc(C)cc3C)c2=O)CC1 (stereo not given), the Potency was “inactive”.
In the case of Cc1ccc2nc(-c3ccc(N4CCOCC4)cc3)c(Nc3ccccc3C)n2c1, the Potency was “inactive”.
In the case of CC(C)Cc1ccc(CN2CCCC(NC(=O)CCn3cnnn3)C2)cc1 (stereo not given), the Potency was “inactive”.
For NCCCCNc1ncnc2ccc(-c3ccc4c(c3)OCO4)cc12, the Potency was “inactive”.
With Cc1oc(-c2ccc(Cl)cc2)nc1CN1CCCC(C(=O)NCc2cccnc2)C1 (stereo not given) the Potency was active: 2.59 µM.
In the case of O=C(c1ccc(N2CCCC2)c([N+](=O)[O-])c1)N1CCN(c2ccccn2)CC1, the Potency was “inactive”.
In the case of COc1cc(/C=C2\COC/C(=C\c3cc(OC)c(OC)c(OC)c3)C2=O)cc(OC)c1OC, the Potency was inconclusive: 0.82 µM [cytotoxic, full curve, poor fit].
In the case of COC(=O)C(NNc1ccccc1)(NC(=O)c1ccc(F)cc1)C(F)(F)F (stereo not given), the Potency was inconclusive: 20.6 µM [cytotoxic, partial curve].
In the case of CCCCCNCc1ccc(Cl)cc1, the Potency was “inactive”.
For Cc1cccc(NC(=O)c2cccc(NC(=O)c3ccco3)c2)c1C, the activity change, negative = cytotoxic was inconclusive: 39.1%.
For COc1ccc(C(=O)c2cc3c(cc2[N+](=O)[O-])OCCO3)cc1, the Potency was inconclusive: 29.1 µM [cytotoxic, single point].
In the case of O=P(c1ccccc1)(c1ccccc1)c1nc(-c2ccccc2)oc1NCc1ccccc1, the Potency was inconclusive: 32.6 µM [cytotoxic, single point].
In the case of Cc1nc2ccccc2c2oc(C(=O)NCc3ccc4c(c3)OCO4)cc12, the Potency was inconclusive: 10.3 µM [cytotoxic, partial curve, poor fit].
In the case of FC(F)(F)c1nnc(-c2ccccc2)nc1Oc1ccc(Cl)cc1Cl, the Potency was “inactive”.
With O=[N+]([O-])c1ccc(OCc2cnc(Cl)s2)c([N+](=O)[O-])c1 the Potency was active: 6.51 µM.
In the case of CCCOC(=O)C(C)n1cnc2scc(-c3ccc(C)cc3)c2c1=O (stereo not given), the Potency was inconclusive: 23.1 µM [cytotoxic, single point].
For CCOc1ccc(OCC)c(NC(=O)CCCN2C(=S)NC(C)(C)CC2C)c1 (stereo not given), the Potency was “inactive”.
For COc1ccccc1N(C(=O)Cn1nnc(-c2ccc(C)o2)n1)C(C(=O)NC1CCCC1)c1ccncc1 (stereo not given), the Potency was inconclusive: 0.082 µM [cytotoxic, full curve].
For COc1ccc(CCn2c(=N)c(C(=O)NC3CCCC3)cc3c(=O)n4cccc(C)c4nc32)cc1, the Potency was inconclusive: 16.4 µM [cytotoxic, single point].
For COC(=O)c1sccc1S(=O)(=O)Nc1ccc(Cl)cc1, the Potency was inconclusive: 29.1 µM [rising, single point].
In the case of CCn1c2ccccc2c2cc(/C=C3/C=Cc4ccccc43)ccc21, the Potency was inconclusive: 20.6 µM [cytotoxic, single point].
In the case of O=C(Cc1ccc(NC(=O)C2CCCN(C(=O)C3CCCCC3)C2)cc1)Nc1cccc(C(=O)N2CCCC2)c1 (stereo not given), the Potency was “inactive”.
For C#CCOc1c(Br)cc(C2C(C(=O)OC)=C(C)NC3=C2C(=O)c2ccccc23)cc1OCC (stereo not given), the Potency was active: 4.61 µM.
For COc1ccc(Nc2nc(C)c3ccccc3n2)cc1, the Potency was “inactive”.
In the case of Cc1ccc(C)c(N(CC(=O)NC2CCCC2)C(=O)c2oc(C(C)(C)C)cc2C)c1, the Potency was inconclusive: 29.1 µM [cytotoxic, single point].
For CN(C)CCCNc1ccc(-c2nn(C)c(=O)c3ccccc23)cc1[N+](=O)[O-], the Potency was “inactive”.
